Results are given in words; binding and its absence hold for the method and conditions named. Some entries that bind do so weakly or less than the wild type.
Molecular target: T1, biotinylated HEG1 cytoplasmic tail (a.a. 1274-1381) (UniProt Q9ULI3)
T1 sequence (chain, biotin on the in vivo biotinylation peptide tag): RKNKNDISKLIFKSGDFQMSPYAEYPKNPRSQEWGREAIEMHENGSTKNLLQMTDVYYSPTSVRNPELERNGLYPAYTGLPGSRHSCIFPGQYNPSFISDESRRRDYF
Assay: flow cytometry on beads

Chains of the proteins cited; added tags and fusions are not shown. Residues count along the entry.
UniProt O00522, residues 417-736: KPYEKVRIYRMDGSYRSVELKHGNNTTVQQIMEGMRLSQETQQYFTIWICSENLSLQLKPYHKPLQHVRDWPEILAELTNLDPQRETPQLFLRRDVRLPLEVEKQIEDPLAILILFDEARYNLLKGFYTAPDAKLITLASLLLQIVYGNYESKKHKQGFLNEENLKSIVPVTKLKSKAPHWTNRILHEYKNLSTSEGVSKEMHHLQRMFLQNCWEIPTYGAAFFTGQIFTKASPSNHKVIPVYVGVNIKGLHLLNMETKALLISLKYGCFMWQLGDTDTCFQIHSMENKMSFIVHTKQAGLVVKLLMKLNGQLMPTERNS

binding: binds
Substance: His6-EGFP-KRIT1(WT) FERM domain (417-736) (from UniProt O00522 417-736) (domain or fragment)
